The record followed here is the supplement of paper PMC11006884.

Sequences of proteins named here, by UniProt entry; tags and fusion partners are left off. A change or cut given only in a name is not applied to a line headed by its entry.
UniProt Q9Y4W6: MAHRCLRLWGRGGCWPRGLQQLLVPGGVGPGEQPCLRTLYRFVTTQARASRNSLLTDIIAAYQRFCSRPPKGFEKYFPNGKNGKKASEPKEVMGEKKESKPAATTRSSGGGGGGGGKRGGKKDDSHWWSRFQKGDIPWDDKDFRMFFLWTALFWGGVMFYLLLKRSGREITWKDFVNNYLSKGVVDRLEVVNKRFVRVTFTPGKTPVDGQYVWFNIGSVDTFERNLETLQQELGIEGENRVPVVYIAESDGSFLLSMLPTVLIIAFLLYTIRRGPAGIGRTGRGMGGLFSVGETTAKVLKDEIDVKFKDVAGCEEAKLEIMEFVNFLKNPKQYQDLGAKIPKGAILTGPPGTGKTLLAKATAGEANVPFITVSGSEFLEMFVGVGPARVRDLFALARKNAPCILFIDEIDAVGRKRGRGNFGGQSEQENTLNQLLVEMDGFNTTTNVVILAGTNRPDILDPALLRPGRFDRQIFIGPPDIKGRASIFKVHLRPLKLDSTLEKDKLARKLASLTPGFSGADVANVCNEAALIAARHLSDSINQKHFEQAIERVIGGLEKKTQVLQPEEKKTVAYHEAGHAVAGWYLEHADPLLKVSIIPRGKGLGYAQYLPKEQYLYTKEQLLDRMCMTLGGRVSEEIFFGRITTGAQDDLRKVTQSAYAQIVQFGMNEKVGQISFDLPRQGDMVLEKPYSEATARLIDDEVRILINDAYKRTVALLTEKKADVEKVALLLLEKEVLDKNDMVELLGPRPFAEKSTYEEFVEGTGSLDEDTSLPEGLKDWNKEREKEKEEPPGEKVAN
UniProt Q9Y570: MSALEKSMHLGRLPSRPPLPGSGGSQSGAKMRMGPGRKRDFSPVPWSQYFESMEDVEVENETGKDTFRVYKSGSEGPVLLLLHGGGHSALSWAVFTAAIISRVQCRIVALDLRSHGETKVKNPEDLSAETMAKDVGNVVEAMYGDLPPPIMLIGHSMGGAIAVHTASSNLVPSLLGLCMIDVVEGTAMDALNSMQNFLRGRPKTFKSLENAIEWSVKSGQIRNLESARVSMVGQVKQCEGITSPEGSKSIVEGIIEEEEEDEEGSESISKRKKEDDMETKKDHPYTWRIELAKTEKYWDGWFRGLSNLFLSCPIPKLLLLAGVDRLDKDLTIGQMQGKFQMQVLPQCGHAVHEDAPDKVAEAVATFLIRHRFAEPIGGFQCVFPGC
UniProt Q9Y490: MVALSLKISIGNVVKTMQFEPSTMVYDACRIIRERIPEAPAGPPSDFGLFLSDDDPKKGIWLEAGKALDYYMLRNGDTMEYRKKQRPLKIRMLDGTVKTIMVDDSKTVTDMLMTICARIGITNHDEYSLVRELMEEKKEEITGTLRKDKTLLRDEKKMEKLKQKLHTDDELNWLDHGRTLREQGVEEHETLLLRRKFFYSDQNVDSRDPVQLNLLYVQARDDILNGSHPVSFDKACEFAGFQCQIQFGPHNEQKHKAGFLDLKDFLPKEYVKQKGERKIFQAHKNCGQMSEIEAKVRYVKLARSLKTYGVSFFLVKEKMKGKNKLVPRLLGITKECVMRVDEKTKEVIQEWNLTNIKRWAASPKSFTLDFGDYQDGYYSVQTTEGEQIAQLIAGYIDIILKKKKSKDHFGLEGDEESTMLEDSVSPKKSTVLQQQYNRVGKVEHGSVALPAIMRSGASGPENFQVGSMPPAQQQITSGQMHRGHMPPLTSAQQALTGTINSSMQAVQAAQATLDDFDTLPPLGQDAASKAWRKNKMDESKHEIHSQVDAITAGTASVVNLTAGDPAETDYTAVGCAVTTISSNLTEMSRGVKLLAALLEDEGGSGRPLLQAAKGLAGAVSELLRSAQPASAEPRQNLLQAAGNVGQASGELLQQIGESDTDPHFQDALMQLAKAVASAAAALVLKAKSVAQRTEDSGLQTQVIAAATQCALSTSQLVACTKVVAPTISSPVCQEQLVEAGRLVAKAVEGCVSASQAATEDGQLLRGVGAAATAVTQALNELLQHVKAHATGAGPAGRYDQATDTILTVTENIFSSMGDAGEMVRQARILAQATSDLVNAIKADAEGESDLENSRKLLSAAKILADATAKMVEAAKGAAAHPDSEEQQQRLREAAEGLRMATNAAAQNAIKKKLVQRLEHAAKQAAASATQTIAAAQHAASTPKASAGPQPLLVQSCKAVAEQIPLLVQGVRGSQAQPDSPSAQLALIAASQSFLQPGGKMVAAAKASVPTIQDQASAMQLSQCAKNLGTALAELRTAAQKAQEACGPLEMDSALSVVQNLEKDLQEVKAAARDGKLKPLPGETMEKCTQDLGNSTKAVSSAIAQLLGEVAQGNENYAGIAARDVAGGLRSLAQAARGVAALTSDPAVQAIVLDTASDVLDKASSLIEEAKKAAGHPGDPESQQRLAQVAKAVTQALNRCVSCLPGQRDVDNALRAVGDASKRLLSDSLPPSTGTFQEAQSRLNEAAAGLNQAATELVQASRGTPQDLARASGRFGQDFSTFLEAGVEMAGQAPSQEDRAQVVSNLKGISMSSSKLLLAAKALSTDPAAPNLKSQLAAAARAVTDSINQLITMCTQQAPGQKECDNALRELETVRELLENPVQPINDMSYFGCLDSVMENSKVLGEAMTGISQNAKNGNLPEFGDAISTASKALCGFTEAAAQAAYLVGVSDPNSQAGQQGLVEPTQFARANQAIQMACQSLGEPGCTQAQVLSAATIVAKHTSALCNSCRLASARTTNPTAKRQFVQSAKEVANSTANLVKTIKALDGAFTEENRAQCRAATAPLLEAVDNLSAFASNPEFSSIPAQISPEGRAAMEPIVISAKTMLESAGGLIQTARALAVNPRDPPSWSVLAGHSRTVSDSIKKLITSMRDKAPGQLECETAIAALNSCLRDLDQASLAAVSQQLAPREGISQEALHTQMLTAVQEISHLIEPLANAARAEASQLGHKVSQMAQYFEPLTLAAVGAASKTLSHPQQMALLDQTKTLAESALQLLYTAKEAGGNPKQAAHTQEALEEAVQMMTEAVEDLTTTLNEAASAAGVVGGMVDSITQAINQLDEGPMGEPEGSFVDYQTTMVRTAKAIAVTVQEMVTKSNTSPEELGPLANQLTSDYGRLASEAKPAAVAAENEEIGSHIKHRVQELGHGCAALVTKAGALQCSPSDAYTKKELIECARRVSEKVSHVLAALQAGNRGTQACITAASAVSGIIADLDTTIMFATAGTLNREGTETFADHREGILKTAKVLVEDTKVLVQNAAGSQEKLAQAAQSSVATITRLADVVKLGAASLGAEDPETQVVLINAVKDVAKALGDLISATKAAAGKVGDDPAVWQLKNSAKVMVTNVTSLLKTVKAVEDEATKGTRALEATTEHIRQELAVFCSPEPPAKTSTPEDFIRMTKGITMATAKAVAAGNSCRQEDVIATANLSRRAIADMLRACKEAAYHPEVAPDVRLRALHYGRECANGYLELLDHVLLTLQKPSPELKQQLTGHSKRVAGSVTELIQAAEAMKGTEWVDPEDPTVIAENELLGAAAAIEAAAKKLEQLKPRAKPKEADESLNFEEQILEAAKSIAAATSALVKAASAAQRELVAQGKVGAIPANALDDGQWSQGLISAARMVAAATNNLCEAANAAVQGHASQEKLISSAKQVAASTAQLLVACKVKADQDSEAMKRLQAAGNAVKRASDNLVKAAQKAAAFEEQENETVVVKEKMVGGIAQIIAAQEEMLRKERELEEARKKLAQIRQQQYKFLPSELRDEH
UniProt Q9Y5B8, whole entry: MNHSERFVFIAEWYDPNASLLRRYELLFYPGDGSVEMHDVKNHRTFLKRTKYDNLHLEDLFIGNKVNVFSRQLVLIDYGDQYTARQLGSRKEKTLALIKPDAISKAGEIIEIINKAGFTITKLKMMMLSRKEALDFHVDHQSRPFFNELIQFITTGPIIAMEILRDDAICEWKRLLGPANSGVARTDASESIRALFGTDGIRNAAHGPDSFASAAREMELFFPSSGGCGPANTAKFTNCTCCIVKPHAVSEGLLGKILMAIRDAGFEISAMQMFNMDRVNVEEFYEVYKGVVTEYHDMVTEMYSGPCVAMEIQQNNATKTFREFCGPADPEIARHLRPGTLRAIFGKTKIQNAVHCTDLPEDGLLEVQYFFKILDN
UniProt Q9Y5M8: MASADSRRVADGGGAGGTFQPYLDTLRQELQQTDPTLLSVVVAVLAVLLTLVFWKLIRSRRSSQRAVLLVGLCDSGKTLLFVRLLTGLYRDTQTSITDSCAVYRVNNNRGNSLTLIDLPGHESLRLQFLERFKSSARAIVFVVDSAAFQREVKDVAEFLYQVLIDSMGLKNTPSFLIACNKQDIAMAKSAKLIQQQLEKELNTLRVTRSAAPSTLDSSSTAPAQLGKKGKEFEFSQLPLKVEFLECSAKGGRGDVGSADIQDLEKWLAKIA
UniProt Q9Y4W2: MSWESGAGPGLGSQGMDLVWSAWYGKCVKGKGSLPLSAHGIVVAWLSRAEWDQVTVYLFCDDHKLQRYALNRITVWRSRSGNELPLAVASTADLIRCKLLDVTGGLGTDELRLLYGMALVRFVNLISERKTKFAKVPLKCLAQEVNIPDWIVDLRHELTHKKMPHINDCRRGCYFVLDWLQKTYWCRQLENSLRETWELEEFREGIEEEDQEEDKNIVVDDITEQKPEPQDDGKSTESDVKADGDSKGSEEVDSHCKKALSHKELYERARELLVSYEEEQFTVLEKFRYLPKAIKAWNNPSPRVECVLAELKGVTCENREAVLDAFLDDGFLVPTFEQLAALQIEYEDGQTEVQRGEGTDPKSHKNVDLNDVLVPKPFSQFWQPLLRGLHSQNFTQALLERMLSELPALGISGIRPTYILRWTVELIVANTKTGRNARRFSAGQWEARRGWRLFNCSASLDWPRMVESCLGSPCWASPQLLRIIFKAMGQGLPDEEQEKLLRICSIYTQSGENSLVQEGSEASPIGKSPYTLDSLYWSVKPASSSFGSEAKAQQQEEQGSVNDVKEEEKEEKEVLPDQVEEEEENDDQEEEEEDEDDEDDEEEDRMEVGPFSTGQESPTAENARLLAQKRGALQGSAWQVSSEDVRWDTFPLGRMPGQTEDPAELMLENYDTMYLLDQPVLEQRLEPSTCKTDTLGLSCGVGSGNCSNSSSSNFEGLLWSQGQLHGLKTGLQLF
UniProt Q9Y6B6: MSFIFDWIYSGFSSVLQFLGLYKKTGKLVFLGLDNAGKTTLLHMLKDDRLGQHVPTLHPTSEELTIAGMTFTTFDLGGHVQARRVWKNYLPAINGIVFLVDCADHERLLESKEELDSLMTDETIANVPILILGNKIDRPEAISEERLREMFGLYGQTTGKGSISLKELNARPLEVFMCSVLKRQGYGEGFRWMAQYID
UniProt Q9Y6C9: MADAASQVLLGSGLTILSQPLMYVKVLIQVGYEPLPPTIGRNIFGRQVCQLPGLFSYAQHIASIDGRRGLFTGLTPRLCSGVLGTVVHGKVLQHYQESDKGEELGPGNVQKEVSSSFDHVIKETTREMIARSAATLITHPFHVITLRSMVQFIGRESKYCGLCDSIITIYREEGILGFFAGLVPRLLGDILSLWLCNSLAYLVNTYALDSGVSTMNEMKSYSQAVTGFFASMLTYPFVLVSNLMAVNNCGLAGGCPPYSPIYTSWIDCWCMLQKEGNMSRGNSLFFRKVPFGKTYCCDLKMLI
UniProt Q9Y4C8: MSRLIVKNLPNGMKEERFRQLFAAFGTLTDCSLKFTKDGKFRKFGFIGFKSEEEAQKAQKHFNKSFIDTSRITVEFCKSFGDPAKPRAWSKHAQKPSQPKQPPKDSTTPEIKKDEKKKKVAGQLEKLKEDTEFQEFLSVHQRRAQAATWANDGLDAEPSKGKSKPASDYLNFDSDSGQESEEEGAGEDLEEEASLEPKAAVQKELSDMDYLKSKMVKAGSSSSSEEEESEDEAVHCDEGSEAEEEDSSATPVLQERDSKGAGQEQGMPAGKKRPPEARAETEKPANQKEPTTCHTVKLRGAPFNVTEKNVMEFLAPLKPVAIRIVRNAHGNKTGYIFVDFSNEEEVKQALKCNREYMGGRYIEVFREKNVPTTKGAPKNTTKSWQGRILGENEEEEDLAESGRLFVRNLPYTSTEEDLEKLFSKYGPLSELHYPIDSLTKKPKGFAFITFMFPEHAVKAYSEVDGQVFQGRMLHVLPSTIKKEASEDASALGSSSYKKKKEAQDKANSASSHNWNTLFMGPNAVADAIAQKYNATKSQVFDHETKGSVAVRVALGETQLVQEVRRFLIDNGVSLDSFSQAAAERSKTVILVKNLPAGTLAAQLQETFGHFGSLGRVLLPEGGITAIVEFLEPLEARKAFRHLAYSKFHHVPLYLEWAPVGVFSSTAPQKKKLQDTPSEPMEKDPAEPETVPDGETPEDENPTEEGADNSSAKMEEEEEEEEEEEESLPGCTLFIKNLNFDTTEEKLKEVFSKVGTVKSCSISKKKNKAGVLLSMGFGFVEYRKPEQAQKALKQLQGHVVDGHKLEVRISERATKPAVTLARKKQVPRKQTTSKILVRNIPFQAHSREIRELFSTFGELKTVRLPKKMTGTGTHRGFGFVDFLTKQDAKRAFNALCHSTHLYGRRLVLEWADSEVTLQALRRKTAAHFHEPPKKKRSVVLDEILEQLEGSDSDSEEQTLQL

Only a part is listed here, and it is no random draw. The data scatter; read single values as rough.

Compound in this experiment: COC(=O)/C=C/c1ccccc1 [methyl cinnamate]
Description: log2 ratio of iodoacetamide-alkyne labeling of the cysteine site, DMSO over compound (competition); higher = stronger covalent engagement of the cysteine by the compound, active = 1 or more. The following applies: 500 µM; treatment time 1 h; system: HEK293T cell lysate. In outline: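 HEK293T lysate (2 mg/mL) was treated with DMSO or electrophile (500 µM, 1 h, ambient temperature), then iodoacetamide alkyne (1 h), clicked to sCIP-TMT reagents, pooled, trypsin-digested overnight at 37 °C, streptavidin-enriched and acid-eluted. Peptides were run on Orbitrap Eclipse LC-MS/MS with FAIMS and quantified in FragPipe. The log2 competition ratio per cysteine is mean control-channel over mean compound-channel reporter intensity. Duplicate channels and three replicates were used, and cysteines quantified in only one replicate were excluded.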
For YTHDF2 C482 (UniProt Q9Y5A9), the “log2 ratio of iodoacetamide-alkyne labeling” value (“log2 ratio” for short) was inactive: -0.00989.

As for UniProt Q9Y6E0_C375, the “log2 ratio” value was inactive: 0.244.

For the target AFG3L2 C525 (UniProt Q9Y4W6), the “log2 ratio” value was inactive: 0.194.

Regarding PPME1 C347 (UniProt Q9Y570), the “log2 ratio” value is inactive: -0.0375.

Take TLN1 C286 (UniProt Q9Y490): the “log2 ratio” value is inactive: 0.33.

In the case of TELO2 C518 (UniProt Q9Y4R8), the “log2 ratio” value was inactive: -0.488.

Regarding TEX264 C165 (UniProt Q9Y6I9), the “log2 ratio” value is inactive: 0.311.

Turning to NME7 C228 (UniProt Q9Y5B8), the “log2 ratio” value was inactive: -0.0844.

Take RNF114 C176 (UniProt Q9Y508): the “log2 ratio” value is inactive: 0.0717.

Regarding USP16 C631 (UniProt Q9Y5T5), the “log2 ratio” value was inactive: 0.506.

Regarding SRPRB C246 (UniProt Q9Y5M8), the “log2 ratio” value was inactive: 0.225.

Regarding UCHL5 C9 (UniProt Q9Y5K5), the “log2 ratio” value was inactive: 0.0922.

On to LAS1L C469 (UniProt Q9Y4W2), for which the “log2 ratio” value is inactive: -0.251.

Regarding UniProt Q9Y6E0_C394, the “log2 ratio” value is inactive: 0.323.

Regarding ARFGEF2 C1147 (UniProt Q9Y6D5), the “log2 ratio” value is inactive: 0.0989.

Regarding UniProt Q9Y678_C325, the “log2 ratio” value was inactive: -0.00202.

With SAR1B C178 (UniProt Q9Y6B6), the “log2 ratio” value was inactive: 0.204.

With MTCH2 C49 (UniProt Q9Y6C9), the “log2 ratio” value is inactive: -0.181.

With ARFGEF2 C1450 (UniProt Q9Y6D5), the “log2 ratio” value is inactive: 0.231.

With RBM19 C293 (UniProt Q9Y4C8), the “log2 ratio” value is inactive: -0.0474.

Take NUBP2 C269 (UniProt Q9Y5Y2): the “log2 ratio” value was inactive: -0.103.
